In US9801918B2, “Methods of treatment using extracts of Anisomeles heyneana” (Council of Scientific & Industrial Research, priority 2011, dated 2017):

Experiment: Solar cell sensitizing activity in dye sensitized solar cells (DSSCs)
Conditions: DSSC sensitized with compound; 100 mW/cm^2, 1 sun AM 1.5

With C[C@@H]1O[C@@H](O[C@@H]2[C@@H](O)[C@H](OCCc3ccc(O)c(O)c3)O[C@H](CO)[C@H]2OC(=O)/C=C/c2ccc(O)c(O)c2)[C@H](O)[C@H](O)[C@H]1O [Compound 3, 2-(3,4-dihydroxyphenyl)ethyl 3-O-(6-deoxy-alpha-L-mannopyranosyl)-4-O-[(2E)-3-(3,4-dihydroxyphenyl)prop-2-enoyl]-beta-D-gluco pyrano side] the “Eff. (conversion efficiency of solar energy into electric current)” value was 0.28%, the FF was 59.1% and the Isc was 0.15 mA. It also gave a Voc of 0.49 V.
